Reference: PubChem BioAssay AID540276 (National Center for Advancing Translational Sciences (NCATS), 2011)
Where “and” joins values, the source holds several entries; their conditions need not be identical. Equal entries are not always repeated. Among all 300,000 compounds or so, about 5,400 (1.8%) were called active. Inconclusive means that the source gave no clear call. Such entries were picked first, then a sample of the others. Calls follow the shape of the full dose curve; tested in HEK293 cells. Potencies beside an inconclusive call are fits to weak or partial responses and may not hold up.

Assay: qHTS for inhibitors of binding or entry into cells for Marburg Virus
Conditions: Marburg virus pseudotyped entry inhibition, cell reporter; activity change, negative = inhibition: at 37.8 µM (top of the series) unless noted
% is scaled to controls: 0 for no effect and ±100 for the full control effect; potency is read from the fitted curve at half-maximal effect.

SMILES	Potency	activity change, negative = inhibition
COc1ccc(Cn2nnnc2C(C(C)C)N2CCN(c3ccccc3OC)CC2)cc1 (configuration not stated)	inconclusive: 11.2 µM [inhibitor, partial curve, poor fit]	
CC(=O)C1=NN(c2ccccc2)C(c2cccs2)N1c1ccc(N(C)C)cc1 (configuration not stated)	inconclusive: 20.6 µM [inhibitor, single point]	
CCOc1ccc(S(=O)(=O)N2CCC(C(=O)N3CCCCCC3)CC2)cc1C	inconclusive: 35.5 µM [inhibitor, single point]	
Cc1c(C)n(C)c2ccc(C(=O)NCCCN3CCN(c4ccc(F)cc4)CC3)cc12	inconclusive: 10 µM [inhibitor, single point]	
O=C(Nc1cccc(NC(=O)c2cccnc2)c1)c1cccnc1		inactive: -1.53%
Cc1ccc(C)n1-n1cnc2sc3c(c2c1=O)CCC3		inactive: 0.445%
CCOC(=O)NCc1ccc(S(=O)(=O)Nc2ccccc2C)cc1		inactive: -18.6%
COc1ccccc1NC(=O)c1cc(S(=O)(=O)N2CCCCCC2)ccc1F		inactive: 2.32% [at 46.1 µM]
CC12CCC(=O)N1C(C(=O)Nc1nc(-c3cc(F)ccc3F)cs1)CS2 (configuration not stated)		inactive: -17.9% [at 46.1 µM]
C=CCOc1ccc(/C=N/n2cncn2)cc1OC	inconclusive: 0.0052 µM [inhibitor, full curve, poor fit]	
CCCCOC(=O)C1=C(C)Nc2nnnn2C1c1ccccc1Cl (configuration not stated)	inconclusive: 1.58 µM [activator, partial curve, poor fit]	
O=C1c2ccccc2CN1CCNC(=S)NC1CCCCC1	inconclusive: 1 µM [inhibitor, single point]	
CC(Oc1cccc(Cl)c1)C(=O)Nc1cc(Cl)ccc1N1CCOCC1 (configuration not stated)	inconclusive: 10 µM [inhibitor, partial curve, poor fit]	
Cc1cc(C)n(C(C)CNC(=O)c2ccc3c(c2)OCO3)n1 (configuration not stated)		inactive: 13.1% [at 46.1 µM]
COc1ccc(-c2n[nH]c(C)c2-c2ccc(OC)c(OC)c2)c(O)c1	inconclusive: 14.1 µM [inhibitor, partial curve, poor fit]	
CCC(=NCc1ccc2c(c1)OCO2)c1c(O)n(C2CCCCC2)c(=O)[nH]c1=O	inconclusive: 32.6 µM [inhibitor, single point]	
CC1CCC(NC(=O)CCNC(=O)c2ccc(Br)cc2)CC1 (configuration not stated)	inconclusive: 5.62 µM [activator, single point]	
CN1CCN(S(=O)(=O)c2ccc(NC(=S)NC(=O)C(C)(C)C)cc2)CC1	inconclusive: 35.5 µM [activator, partial curve, poor fit]	
Cc1ccc(C(C(=O)NC2CCCCC2)N(C(=O)Cc2c[nH]c3ccccc23)c2ccccc2)o1 (configuration not stated)	inconclusive: 14.6 µM [inhibitor, single point]	
COCCN(C(=O)CCC(=O)Nc1nccs1)C(C(=O)NC(C)(C)C)c1ccc(F)cc1 (configuration not stated)		inactive: 1.28% [at 46.1 µM]
CCC(C)[C@H](NC(=O)c1cc2cc(Cl)ccc2n1C)C(=O)N1CCC(C(=O)O)CC1 (some centres not stated)		inactive: 0.248% [at 46.1 µM]
CNC(=O)c1cccn(Cc2ccc(C(F)(F)F)cc2)c1=O	inconclusive: 8.91 µM [inhibitor, partial curve]	
Nc1ncnc(NCc2ccc(F)cc2)c1[N+](=O)[O-]		inactive: 2.98% [at 46.1 µM]
O=C(NC(=S)NNC(=O)c1ccccc1[N+](=O)[O-])c1ccc(Br)cc1	inconclusive: 11.2 µM [activator, partial curve, poor fit]	

A draw from above in order of length of the SMILES, largest number first.
SMILES	Potency	activity change, negative = inhibition
CCC(=NCc1ccc2c(c1)OCO2)c1c(O)n(C2CCCCC2)c(=O)[nH]c1=O	inconclusive: 32.6 µM [inhibitor, single point]	
Cc1c(C)n(C)c2ccc(C(=O)NCCCN3CCN(c4ccc(F)cc4)CC3)cc12	inconclusive: 10 µM [inhibitor, single point]	
CN1CCN(S(=O)(=O)c2ccc(NC(=S)NC(=O)C(C)(C)C)cc2)CC1	inconclusive: 35.5 µM [activator, partial curve, poor fit]	
CC(=O)C1=NN(c2ccccc2)C(c2cccs2)N1c1ccc(N(C)C)cc1 (configuration not stated)	inconclusive: 20.6 µM [inhibitor, single point]	
CCOc1ccc(S(=O)(=O)N2CCC(C(=O)N3CCCCCC3)CC2)cc1C	inconclusive: 35.5 µM [inhibitor, single point]	
COc1ccc(-c2n[nH]c(C)c2-c2ccc(OC)c(OC)c2)c(O)c1	inconclusive: 14.1 µM [inhibitor, partial curve, poor fit]	
COc1ccccc1NC(=O)c1cc(S(=O)(=O)N2CCCCCC2)ccc1F		inactive: 2.32% [at 46.1 µM]
CC(Oc1cccc(Cl)c1)C(=O)Nc1cc(Cl)ccc1N1CCOCC1 (configuration not stated)	inconclusive: 10 µM [inhibitor, partial curve, poor fit]	
Cc1cc(C)n(C(C)CNC(=O)c2ccc3c(c2)OCO3)n1 (configuration not stated)		inactive: 13.1% [at 46.1 µM]
O=C(Nc1cccc(NC(=O)c2cccnc2)c1)c1cccnc1		inactive: -1.53%
CCCCOC(=O)C1=C(C)Nc2nnnn2C1c1ccccc1Cl (configuration not stated)	inconclusive: 1.58 µM [activator, partial curve, poor fit]	
Nc1ncnc(NCc2ccc(F)cc2)c1[N+](=O)[O-]		inactive: 2.98% [at 46.1 µM]
Cc1ccc(C)n1-n1cnc2sc3c(c2c1=O)CCC3		inactive: 0.445%
O=C1c2ccccc2CN1CCNC(=S)NC1CCCCC1	inconclusive: 1 µM [inhibitor, single point]	
C=CCOc1ccc(/C=N/n2cncn2)cc1OC	inconclusive: 0.0052 µM [inhibitor, full curve, poor fit]	

Later entries:

SMILES	Potency	activity change, negative = inhibition
O=S(=O)(c1ccccc1)N(CC(O)CN1CCOCC1)c1ccccc1 (configuration not stated)		inactive: 20.7% [at 46.1 µM]
COc1ccc2c(c1OC)C(=O)OC2C1c2c(cc3c(c2OC)OCO3)CCN1C (configuration not stated)	inconclusive: 14.1 µM [inhibitor, partial curve]	
COc1ccc(N=c2scc(-c3ccc(OC)cc3)n2CCO)cc1		inactive: -29.4%
Cc1ccc(Nc2nc(N)nc(CN3CCc4ccccc4C3)n2)cc1	inconclusive: 29.1 µM [inhibitor, single point]	
CCCCc1nnc(SCC(=O)Nc2nccs2)n1C		inactive: -0.368% [at 46.1 µM]
C1CCCCCC(NCCN2CCNCC2)CCCCC1	inconclusive: 6.31 µM [inhibitor, single point]	
Cc1ccc(S(=O)(=O)N[C@H](C(=O)OCC(=O)NC(=O)Nc2ccc3c(c2)OCCO3)C(C)C)cc1		inactive: 20.7%
CCOC(=O)c1sc(NC(=O)CSc2n[nH]c(CC)n2)nc1C	inconclusive: 5.62 µM [inhibitor, partial curve, poor fit]	
CCOc1cc(C2Nc3cccc4cccc(c34)N2)ccc1O	inconclusive: 7.3 µM [inhibitor, partial curve, poor fit]	
C=C(C)CSC1=C(C#N)C(c2ccccc2Cl)CC(=O)N1 (configuration not stated)		inactive: 3.48%
Cc1nn(C)c(C)c1CN(C(=O)C1CCC(=O)N(C2CCCCCC2)C1)C(C)C (configuration not stated)	inconclusive: 35.5 µM [activator, single point]	
CCOc1cc(CNc2ccc3c(c2)OCCO3)cc(Br)c1OCC	inconclusive: 0.891 µM [inhibitor, full curve, poor fit]	
O=C(N/N=C/c1cn(-c2ccccc2)nc1-c1ccccc1)c1ccco1		inactive: -29.7%
BrCC1C[n+]2c(SCc3ccccc3)nc3sc4c(c3c2O1)CCCC4 (configuration not stated)	inconclusive: 11.2 µM [activator, single point]	
CC(=O)Nc1sc2c(c1CN1CCCC1)CCCC2	inconclusive: 11.2 µM [inhibitor, single point]	
CCN(CC)c1ccc(/C=C2\C(=O)N(c3nnc(C)c(=O)[nH]3)N=C2C)cc1	inconclusive: 35.5 µM [inhibitor, single point]	
COc1ccc(OC)c(NC(=O)c2nc3ccccc3s2)c1	inconclusive: 3.55 µM [activator, single point]	
O=C(/C=C/c1ccccc1)CC(O)(c1ccccc1)C(F)(F)F (configuration not stated)	inconclusive: 20.6 µM [inhibitor, single point]	
CC(CC(=O)Nc1ccc(S(=O)(=O)N2CCOCC2)cc1)c1ccccc1 (configuration not stated)		inactive: 14.9% [at 46.1 µM]
CCOc1ccc(N(CC(=O)NCCOc2ccc(C)cc2)S(=O)(=O)c2ccccc2)cc1	inconclusive: 0.794 µM [inhibitor, single point]	
CC(=O)NCCc1nc2cc(NC(=O)c3ccccc3Cl)ccc2n1C		inactive: 28.6% [at 46.1 µM]
Cc1cccc(N=Nc2c(O)[nH]c3ccc(F)cc23)c1	inconclusive: 2.82 µM [activator, partial curve, poor fit]	
CCOC(=O)c1c2c(c(=S)n(-c3ccccc3)c1N)CCC2	inconclusive: 29.1 µM [inhibitor, single point]	
CCOC(=O)C1=C(O)C(=O)N(Cc2cccnc2)C1c1ccc(OC)cc1 (configuration not stated)	inconclusive: 0.562 µM [activator, full curve, poor fit]	

SMILES	Potency	activity change, negative = inhibition
COc1ccc(OC)c(NC(=O)CSc2nc3cccnc3n2C)c1	inconclusive: 17.8 µM [inhibitor, partial curve, poor fit]	
N#Cc1ccc(OC(=O)Cc2ccsc2)cc1		inactive: 24.1% [at 46.1 µM]
COc1ccc(C2c3c(C)nn(-c4ccccc4)c3NC(=O)N2c2ccccc2)cc1 (configuration not stated)	inconclusive: 8.91 µM [inhibitor, partial curve]	
O=[N+]([O-])/C=C/c1cn(Cc2ccc(Cl)cc2)c2ccccc12	inconclusive: 35.5 µM [inhibitor, partial curve, poor fit]	
NC(=O)[C@@H]1CCCN1C(=O)c1ccc2nc(Cc3cccc(Cl)c3)oc2c1		inactive: 13.2% [at 46.1 µM]
CCc1c(C)nc(SC(C(=O)O)c2ccccc2)c(C#N)c1C (configuration not stated)	inconclusive: 29.1 µM [inhibitor, single point]	
Cc1cc(-c2n[nH]c(=S)n2/N=C/c2cccc([N+](=O)[O-])c2)n[nH]1		inactive: 21.3%
CCN(CC)C(=O)C(Sc1nnnn1-c1ccc(O)cc1)c1ccccc1 (configuration not stated)		inactive: -11.6%
CC(=O)c1cccc(OCC(=O)Nc2cc(Cl)ccc2-n2cncn2)c1	inconclusive: 14.1 µM [activator, partial curve, poor fit]	
COC(=O)c1c(C(=O)OC)c2ccccn2c1C(=O)c1ccc([N+](=O)[O-])cc1		inactive: -4.11%
CC(C)NCCOCCSc1ccc(Cl)cc1	inconclusive: 35.5 µM [inhibitor, single point]	
Cc1cc(SCC(=O)NCCC2=CCCCC2)nc2ccccc12	inconclusive: 18.4 µM [inhibitor, single point]	
C=CCn1c(=O)c2ccccc2n2c(SC(C)C(=O)Nc3nc(-c4ccccc4)cs3)nnc12 (configuration not stated)		inactive: -12.2% [at 46.1 µM]
Cc1ccc(NC(=O)CSc2nnc(-c3ccccn3)n2C)cc1		inactive: 15.4%
Cc1cc(C)n(C(=O)c2cc3c(s2)CCCC3)n1		inactive: 9.75%
Cc1ccc(NC(=O)NCc2cccnc2)cc1C		inactive: -14.6% [at 46.1 µM]
COc1ccccc1CN1CCCC(C(=O)c2ccccc2SC)C1 (configuration not stated)	active: 10 µM	
Nc1c(C(=O)Nc2ccc(C(=O)O)cc2)sc2nc3c(cc12)CCCC3		inactive: 24.7% [at 46.1 µM]
CCNc1nc(NCC)n2c(SCC(=O)Nc3cccc(F)c3)nnc2n1	inconclusive: 11.2 µM [inhibitor, partial curve, poor fit]	
Cc1cc(C=C(C#N)C#N)ccc1N1CCCC1	inconclusive: 0.631 µM [activator, full curve, poor fit]	
CCOC(=O)c1ccc(N/C(=N\S(=O)(=O)c2ccc(F)cc2F)c2ccccc2)cc1	inconclusive: 2.24 µM [inhibitor, partial curve, poor fit]	
O=C(NNc1cccc(Cl)n1)c1c(Cl)cccc1Cl		inactive: 5.84%
Cc1nn(-c2ccccc2)c2sc(C(=O)Nc3ccccc3Br)cc12	inconclusive: 3.55 µM [inhibitor, single point]	
CCCN1C[C@H](CSC)C[C@@H]2c3cccc4[nH]cc(c34)C[C@H]21	inconclusive: 3.55 µM [inhibitor, partial curve] and inconclusive: 20.6 µM [inhibitor, partial curve, poor fit]	
